Literature values as cited in patent US7576093B2, “Method of treatment of bone-related disorders or conditions” (AstraZeneca AB, priority 2006, dated 2009).
For at least one compound, name, drawing or mass did not settle the structure.

Test system: bone-specific alkaline phosphatase
Settings: patients treated with lithium; cited from earlier work

For `[Li]` [lithium], the “levels of bone-specific alkaline phosphatase” value is given as “increased levels”.
